{"source": "patent US20040186081A1", "about": "“Naaladase inhibitors for treating opioid tolerance” (Guilford Pharmaceuticals Inc., priority 2003, published 2004)", "key": {"C57/BL mice [1]": {"system": "C57/BL mice", "assay": "Acute effects in the tail-flick test (Experiment 2)", "conditions": "mouse, in vivo", "experimental": "(§1) Male C57/BL mice (IMP, Lodz, Poland), 22-24 g of body weight were group-housed in the standard laboratory cages and kept in a temperature-controlled colony room (21+2° C.) with a 12-hr light/dark cycle (light on: 07:00, off: 19:00). Commercial food and tap water were available ad libitum. Each experimental group consisted of 7-28 mice per treatment. All mice were used only once.\n(§2) The intensity of the heat stimulus was adjusted so that the baseline tail-flick latency was ˜3 s. […] Each response assessment consisted of two separate measurements taken at different portions of the tail (spaced by 1.5-2 cm) and separated by 15 s. The mean of these responses was used for subsequent comparisons."}, "C57/BL mice [2]": {"system": "C57/BL mice", "conditions": "mouse, in vivo", "experimental": "as §1, §2"}}, "note": "“Also recorded” adds a separate entry of the source."}
{"smiles": "CN1CC[C@]23c4c5ccc(O)c4O[C@H]2[C@@H](O)C=C[C@H]3[C@H]1C5", "note": "[Morphine, reference compound]", "values": [{"measurement": "tail-flick responses (AUC) compared to placebo+placebo", "setting": "C57/BL mice [1]", "value": "statistically significantly longer tail-flick responses; also recorded: differed significantly"}, {"measurement": "Fold Shift of morphine ED50", "setting": "C57/BL mice [2]", "value": 6.44}]}
